No constants are given. Whether binding was seen depends on the method and setting. In cells and extracts the contact can be indirect. Some entries that bind do so weakly or less than the wild type.
How the values were obtained:
[1] = target: sortilin (human (endogenous in PC3 and LNCaP)) (UniProt Q99523); experiment: co-IP; LNCaP cells, endogenous proteins; cells cross-linked with 2 mM DSP 1 h at 4 °C, lysed in Pierce IP Lysis Buffer; 500 µg lysate protein with 2-4 µg primary or IgG isotype control antibody overnight at 4 °C, Protein G MicroBeads; prey detected by Western blotting
[2] = target: T1, syndecan-1 (human (endogenous in PC3 and LNCaP)) (UniProt P18827); experiment: as above
T1 sequence: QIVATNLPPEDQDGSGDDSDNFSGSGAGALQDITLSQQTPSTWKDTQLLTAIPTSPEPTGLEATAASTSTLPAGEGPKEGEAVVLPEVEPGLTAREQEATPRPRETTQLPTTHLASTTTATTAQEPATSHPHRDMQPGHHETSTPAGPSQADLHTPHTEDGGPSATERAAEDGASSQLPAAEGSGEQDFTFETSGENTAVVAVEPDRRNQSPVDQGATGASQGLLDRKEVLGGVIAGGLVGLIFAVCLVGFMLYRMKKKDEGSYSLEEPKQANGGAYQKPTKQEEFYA

Sequences of proteins named here, by UniProt entry; tags and fusion partners are left off. Residues count along the entry.
UniProt Q99523, residues 78-831: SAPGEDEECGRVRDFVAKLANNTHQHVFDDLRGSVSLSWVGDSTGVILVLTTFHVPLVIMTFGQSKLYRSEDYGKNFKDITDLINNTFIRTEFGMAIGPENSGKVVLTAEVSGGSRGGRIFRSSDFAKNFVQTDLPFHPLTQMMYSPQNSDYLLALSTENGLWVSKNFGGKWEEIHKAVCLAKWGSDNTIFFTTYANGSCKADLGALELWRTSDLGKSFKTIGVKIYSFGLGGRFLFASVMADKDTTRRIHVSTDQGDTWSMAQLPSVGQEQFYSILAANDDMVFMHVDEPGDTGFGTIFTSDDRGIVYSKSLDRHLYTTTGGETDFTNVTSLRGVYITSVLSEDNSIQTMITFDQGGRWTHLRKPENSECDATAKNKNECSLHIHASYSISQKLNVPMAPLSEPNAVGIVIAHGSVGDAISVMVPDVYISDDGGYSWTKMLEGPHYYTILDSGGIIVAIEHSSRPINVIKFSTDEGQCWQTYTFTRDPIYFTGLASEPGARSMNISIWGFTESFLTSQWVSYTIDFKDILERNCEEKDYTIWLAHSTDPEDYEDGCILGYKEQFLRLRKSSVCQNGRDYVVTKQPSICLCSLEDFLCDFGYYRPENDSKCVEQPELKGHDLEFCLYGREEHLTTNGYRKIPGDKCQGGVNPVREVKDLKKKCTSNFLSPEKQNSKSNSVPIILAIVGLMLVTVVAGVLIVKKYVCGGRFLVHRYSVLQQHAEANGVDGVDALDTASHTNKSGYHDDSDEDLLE

[3] = target: sortilin (human (endogenous in PC3 and LNCaP)) (UniProt Q99523); experiment: co-IP; PC3 cells, endogenous proteins; cells cross-linked with 2 mM DSP 1 h at 4 °C, lysed in Pierce IP Lysis Buffer; 500 µg lysate protein with 2-4 µg primary or IgG isotype control antibody overnight at 4 °C, Protein G MicroBeads; prey detected by Western blotting
[4] = target: T1, syndecan-1 (human (endogenous in PC3 and LNCaP)); experiment: as above

binding [1]: binds
binding [2]: binds
binding [3]: binds
binding [4]: binds
B1: lipoprotein lipase (enzyme, UniProt P06858 28-475)
chain: ADQRRDFIDIESKFALRTPEDTAEDTCHLIPGVAESVATCHFNHSSKTFMVIHGWTVTGMYESWVPKLVAALYKREPDSNVIVVDWLSRAQEHYPVSAGYTKLVGQDVARFINWMEEEFNYPLDNVHLLGYSLGAHAAGIAGSLTNKKVNRITGLDPAGPNFEYAEAPSRLSPDDADFVDVLHTFTRGSPGRSIGIQKPVGHVDIYPNGGTFQPGCNIGEAIRVIAERGLGDVDQLVKCSHERSIHLFIDSLLNEENPSKAYRCSSKEAFEKGLCLSCRKNRCNNLGYEINKVRAKRSSKMYLKTRSQMPYKVFHYQVKIHFSGTESETHTNQAFEISLYGTVAESENIPFTLPEVSTNKTYSFLIYTEVDIGELLMLKLKWKSDSYFSWSDWWSSPGFAIQKIRVKAGETQKKVIFCSREKVSHLQKGKAPAVFVKCHDKSLNKKSG
